Test results: patent US4624944A, “Human seminal alpha-inhibins” (The Regents of The University of California, priority 1985, dated 1986)

Tests used:
[1] = system: LHRH-induced FSH secretion by mouse pituitary; experiment: FSH-suppressing (inhibin) activity, in vitro mouse pituitary system; format: cell-based; conditions: dose-response slope
Procedure: FIG. 6 is a graphical illustration of the effect of alpha-IB-31, alpha-IB-52, and alpha-IB-92 on LHRH-induced FSH secretion by mouse pituitary. Means ±SEM (n=5) are shown. On the graph solid circles represent alpha-IB-31; open circles represent alpha-IB-52; solid triangles represent alpha-IB-92.
Disc electrophoresis in polyacrylamide slab gels was performed as described by Reisfield, et al. (1962). The gels were stained with Coomassie Blue (R250). NaDodSO4 gel electrophoresis was carried out as described by Laemmli (1970). The inhibin activity was assayed by the in vitro mouse pituitary system (Yamashiro, et al., 1984; Ramasharma, et al., 1981).
FIG. 6 presents bioassay data for alpha-IB-31, alpha-IB-52 and alpha-IB-92 in suppressing the lutropin-releasing hormone (LHRH)-induced FSH secretion by using mouse pituitaries in vitro. […] The addition of 40 amino acids at the NH2 -terminus of alpha-IB-52 greatly enhance the inhibin activity.

[2] = system: rabbit antiserum to alpha-IB-31; experiment: RIA of alpha-inhibins using rabbit antiserum to ILP (displacement of labelled [Tyr4]-alpha-IB-31); format: binding
Procedure: Radioimmunoassay was performed with rabbit antiserum to alpha-IB-31. Amino acid analyses were performed in an automatic amino acid analyzer (Model 119C, Beckman) as described by Spackman, et al. (1958). The NH2 -terminal residue was determined by the dansyl-Edman procedure (Gray, 1967). For COOH-terminal residue analysis, carboxypeptidase Y digests were carried out in 1M pyridine acetate buffer (pH 5.5) for 4 hr at 37° C. with an enzyme-to-substrate ratio of 1:50. Trypsin digestions were performed with an enzyme-to-substrate ratio of 1:50 in 0.05M Tris/0.01 M Mg^2+, pH 8.5, at 37° C. for 4 hr.
Alpha-IB-52 and alpha-IB-92 cross-react to an antiserum raised against alpha-IB-31. They displace labelled [Tyr^4 ]-alpha-IB-31 with 60% of the potency of alpha-IB-31.

Row | Sequence | Slope (FSH-suppressing activity) [1] | Slope (RIA) [2]
1 | HNKQEGRDHDKSKGHFHRVVIHHKGGKAHRG [alpha-IB-31, alpha-inhibin-31, reference compound] | 0.548 | 1.17
2 | HNKQEGRDHDKSKGHFHRVVIHHKGGKAHRGTQNPSQDQGNSPSGKGISSQY [alpha-IB-52, alpha-inhibin-52] | 0.414 | 0.99

Where no end group is shown, it is not given here.
